The text below walks through data of PMC9716578.

By UniProt entry, the sequences of proteins in these tests, tags left out.
UniProt C8YR32: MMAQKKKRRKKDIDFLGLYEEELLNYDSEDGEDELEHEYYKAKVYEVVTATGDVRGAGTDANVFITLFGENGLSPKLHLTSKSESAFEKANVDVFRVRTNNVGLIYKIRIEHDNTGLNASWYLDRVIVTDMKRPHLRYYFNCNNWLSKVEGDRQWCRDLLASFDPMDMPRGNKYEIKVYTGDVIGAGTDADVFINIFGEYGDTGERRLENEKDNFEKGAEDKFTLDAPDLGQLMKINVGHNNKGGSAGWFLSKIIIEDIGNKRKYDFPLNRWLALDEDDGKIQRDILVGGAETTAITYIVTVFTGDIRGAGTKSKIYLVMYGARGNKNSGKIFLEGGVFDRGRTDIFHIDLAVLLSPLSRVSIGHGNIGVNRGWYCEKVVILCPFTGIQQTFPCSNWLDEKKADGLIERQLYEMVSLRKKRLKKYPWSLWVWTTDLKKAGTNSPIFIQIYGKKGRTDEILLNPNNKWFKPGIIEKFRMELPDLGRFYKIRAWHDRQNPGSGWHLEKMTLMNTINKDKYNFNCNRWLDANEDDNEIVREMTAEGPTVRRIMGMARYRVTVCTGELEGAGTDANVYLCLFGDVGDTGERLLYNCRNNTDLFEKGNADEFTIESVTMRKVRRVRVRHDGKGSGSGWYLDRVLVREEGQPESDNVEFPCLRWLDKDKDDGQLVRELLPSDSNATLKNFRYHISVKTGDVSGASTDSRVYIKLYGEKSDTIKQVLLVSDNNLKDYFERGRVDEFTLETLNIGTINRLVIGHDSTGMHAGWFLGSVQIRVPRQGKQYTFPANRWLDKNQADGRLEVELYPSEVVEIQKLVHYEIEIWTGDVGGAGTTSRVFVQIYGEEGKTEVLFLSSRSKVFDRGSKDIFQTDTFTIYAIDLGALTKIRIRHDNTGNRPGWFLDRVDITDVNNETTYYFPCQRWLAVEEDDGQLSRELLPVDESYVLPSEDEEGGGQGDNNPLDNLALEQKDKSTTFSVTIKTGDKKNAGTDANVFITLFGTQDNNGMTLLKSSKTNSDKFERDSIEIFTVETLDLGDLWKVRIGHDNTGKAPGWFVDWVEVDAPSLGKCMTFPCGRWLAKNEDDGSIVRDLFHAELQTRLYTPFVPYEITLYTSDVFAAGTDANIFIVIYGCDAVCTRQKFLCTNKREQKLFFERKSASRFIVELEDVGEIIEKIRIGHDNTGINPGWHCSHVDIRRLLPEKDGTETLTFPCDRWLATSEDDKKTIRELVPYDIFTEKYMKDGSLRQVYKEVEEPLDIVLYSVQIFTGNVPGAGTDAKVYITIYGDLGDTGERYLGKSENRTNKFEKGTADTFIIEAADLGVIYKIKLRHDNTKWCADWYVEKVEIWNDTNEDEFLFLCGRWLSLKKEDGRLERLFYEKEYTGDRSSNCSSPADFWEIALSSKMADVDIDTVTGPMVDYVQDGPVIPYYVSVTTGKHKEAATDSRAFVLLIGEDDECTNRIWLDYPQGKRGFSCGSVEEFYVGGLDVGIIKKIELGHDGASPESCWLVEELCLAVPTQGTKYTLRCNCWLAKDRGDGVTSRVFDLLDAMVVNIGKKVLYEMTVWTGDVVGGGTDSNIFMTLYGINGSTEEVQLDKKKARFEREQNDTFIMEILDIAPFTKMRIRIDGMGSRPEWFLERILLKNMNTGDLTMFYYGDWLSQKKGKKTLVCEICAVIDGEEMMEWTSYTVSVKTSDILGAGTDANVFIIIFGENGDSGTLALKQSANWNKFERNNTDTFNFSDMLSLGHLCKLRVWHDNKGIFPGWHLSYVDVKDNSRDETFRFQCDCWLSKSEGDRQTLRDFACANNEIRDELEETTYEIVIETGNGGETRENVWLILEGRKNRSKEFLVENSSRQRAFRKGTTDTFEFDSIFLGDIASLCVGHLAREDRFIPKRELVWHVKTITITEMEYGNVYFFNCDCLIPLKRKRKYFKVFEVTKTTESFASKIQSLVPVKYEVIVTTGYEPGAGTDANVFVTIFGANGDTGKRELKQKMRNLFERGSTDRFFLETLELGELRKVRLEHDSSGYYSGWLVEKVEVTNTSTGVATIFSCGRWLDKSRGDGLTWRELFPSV
UniProt Q16665: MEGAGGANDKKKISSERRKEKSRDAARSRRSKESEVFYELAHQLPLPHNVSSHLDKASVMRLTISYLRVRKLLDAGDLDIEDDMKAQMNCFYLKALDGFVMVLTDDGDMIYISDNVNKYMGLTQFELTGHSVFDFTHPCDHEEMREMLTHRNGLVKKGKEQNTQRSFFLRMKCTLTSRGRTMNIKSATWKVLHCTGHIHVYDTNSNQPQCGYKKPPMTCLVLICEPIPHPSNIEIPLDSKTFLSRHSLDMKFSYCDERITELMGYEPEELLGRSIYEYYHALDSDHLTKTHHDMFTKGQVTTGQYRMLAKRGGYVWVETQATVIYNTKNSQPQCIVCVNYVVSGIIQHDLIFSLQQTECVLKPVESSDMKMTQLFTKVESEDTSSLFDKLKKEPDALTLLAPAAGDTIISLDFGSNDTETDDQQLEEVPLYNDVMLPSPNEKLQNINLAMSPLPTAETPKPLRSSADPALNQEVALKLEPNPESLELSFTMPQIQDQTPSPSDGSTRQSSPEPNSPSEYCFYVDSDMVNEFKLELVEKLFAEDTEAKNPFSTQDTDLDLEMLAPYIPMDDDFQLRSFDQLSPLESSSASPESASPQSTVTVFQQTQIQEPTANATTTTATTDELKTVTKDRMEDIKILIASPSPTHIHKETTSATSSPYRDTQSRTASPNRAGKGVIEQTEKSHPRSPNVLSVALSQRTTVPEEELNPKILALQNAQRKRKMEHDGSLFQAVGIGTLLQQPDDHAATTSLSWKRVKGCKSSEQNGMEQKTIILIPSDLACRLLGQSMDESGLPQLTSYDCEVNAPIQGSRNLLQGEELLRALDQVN

These are yes or no findings as the source states them, for the method shown. Binding seen in cells or lysates may run through a third protein. Some results given as binding are weak or reduced against the parent protein; the word gives no strength.

The target in the assay is MYC-tagged LOXHD1 (pcDNA3-LOXHD1-Myc) (mouse) (UniProt C8YR32). The experiment in a line: co-IP; HEK293T co-transfected with HA-HIF1α and Myc-LOXHD1 (1 to 2), cultured under hypoxia (1% O2); 500 μg whole cell lysate in IP buffer (20 mM Tris pH7.5, 150 mM NaCl, 1% Triton-X 100) immunoprecipitated with MYC-tag antibody, protein G Dynabeads, washes with 300 mM NaCl; blots with anti-HA and ….

As to “HA-tagged HIF1α (pCDNA-HA-HIF1A) (from UniProt Q16665 1-826)”, the binding entry was “binds”.
